Data reported in the supplement of paper PMC10849652.
Some of the results follow.

Sequences of proteins named here, by UniProt entry; tags and fusion partners are left off. A change or cut given only in a name is not applied to a line headed by its entry.
UniProt Q8TBF2: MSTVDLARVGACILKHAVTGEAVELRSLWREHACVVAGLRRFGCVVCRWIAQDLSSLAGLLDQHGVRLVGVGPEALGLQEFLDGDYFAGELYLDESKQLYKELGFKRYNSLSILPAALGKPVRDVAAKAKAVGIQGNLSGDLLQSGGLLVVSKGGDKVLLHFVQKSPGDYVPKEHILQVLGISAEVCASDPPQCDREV
UniProt P09417: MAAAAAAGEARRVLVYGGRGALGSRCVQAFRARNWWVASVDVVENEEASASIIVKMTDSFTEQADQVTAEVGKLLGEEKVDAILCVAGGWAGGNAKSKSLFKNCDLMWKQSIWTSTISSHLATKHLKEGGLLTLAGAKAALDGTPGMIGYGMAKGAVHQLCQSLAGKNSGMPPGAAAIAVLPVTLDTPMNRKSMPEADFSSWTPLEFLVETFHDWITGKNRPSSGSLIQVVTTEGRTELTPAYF
UniProt Q96C36: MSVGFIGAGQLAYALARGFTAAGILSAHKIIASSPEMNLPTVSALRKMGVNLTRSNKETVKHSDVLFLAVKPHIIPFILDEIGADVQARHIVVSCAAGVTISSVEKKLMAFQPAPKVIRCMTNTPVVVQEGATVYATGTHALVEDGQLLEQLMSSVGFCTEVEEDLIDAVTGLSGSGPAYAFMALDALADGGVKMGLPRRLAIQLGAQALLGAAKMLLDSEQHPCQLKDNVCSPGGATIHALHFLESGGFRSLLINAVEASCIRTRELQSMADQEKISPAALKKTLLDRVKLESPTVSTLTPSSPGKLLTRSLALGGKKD
UniProt P26599: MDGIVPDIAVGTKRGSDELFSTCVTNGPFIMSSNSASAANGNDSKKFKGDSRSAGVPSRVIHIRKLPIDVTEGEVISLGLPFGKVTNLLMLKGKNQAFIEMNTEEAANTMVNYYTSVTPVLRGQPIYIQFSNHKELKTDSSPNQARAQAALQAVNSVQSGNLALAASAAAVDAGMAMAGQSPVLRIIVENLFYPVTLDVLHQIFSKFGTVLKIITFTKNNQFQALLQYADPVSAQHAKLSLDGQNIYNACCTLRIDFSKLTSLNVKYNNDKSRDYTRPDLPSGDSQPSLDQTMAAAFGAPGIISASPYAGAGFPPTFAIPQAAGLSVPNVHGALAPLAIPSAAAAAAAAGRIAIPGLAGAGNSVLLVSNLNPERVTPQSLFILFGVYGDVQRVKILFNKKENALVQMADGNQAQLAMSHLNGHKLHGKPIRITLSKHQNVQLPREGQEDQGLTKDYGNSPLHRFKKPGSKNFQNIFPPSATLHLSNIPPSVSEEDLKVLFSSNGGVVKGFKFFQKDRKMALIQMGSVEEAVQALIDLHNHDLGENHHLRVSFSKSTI
UniProt Q9UL46, whole entry, looked up: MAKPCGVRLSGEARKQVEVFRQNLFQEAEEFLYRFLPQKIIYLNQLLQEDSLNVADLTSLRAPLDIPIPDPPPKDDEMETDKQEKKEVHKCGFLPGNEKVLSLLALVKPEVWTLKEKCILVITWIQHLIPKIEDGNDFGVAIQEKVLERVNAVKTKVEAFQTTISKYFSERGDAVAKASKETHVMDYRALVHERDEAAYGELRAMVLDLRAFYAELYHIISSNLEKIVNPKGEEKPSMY
UniProt O14818: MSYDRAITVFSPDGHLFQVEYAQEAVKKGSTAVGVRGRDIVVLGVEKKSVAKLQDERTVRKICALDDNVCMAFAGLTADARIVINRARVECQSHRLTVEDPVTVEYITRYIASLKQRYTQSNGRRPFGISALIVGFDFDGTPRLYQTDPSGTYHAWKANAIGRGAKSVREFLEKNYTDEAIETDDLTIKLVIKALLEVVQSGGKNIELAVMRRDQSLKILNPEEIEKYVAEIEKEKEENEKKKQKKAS
UniProt P62191: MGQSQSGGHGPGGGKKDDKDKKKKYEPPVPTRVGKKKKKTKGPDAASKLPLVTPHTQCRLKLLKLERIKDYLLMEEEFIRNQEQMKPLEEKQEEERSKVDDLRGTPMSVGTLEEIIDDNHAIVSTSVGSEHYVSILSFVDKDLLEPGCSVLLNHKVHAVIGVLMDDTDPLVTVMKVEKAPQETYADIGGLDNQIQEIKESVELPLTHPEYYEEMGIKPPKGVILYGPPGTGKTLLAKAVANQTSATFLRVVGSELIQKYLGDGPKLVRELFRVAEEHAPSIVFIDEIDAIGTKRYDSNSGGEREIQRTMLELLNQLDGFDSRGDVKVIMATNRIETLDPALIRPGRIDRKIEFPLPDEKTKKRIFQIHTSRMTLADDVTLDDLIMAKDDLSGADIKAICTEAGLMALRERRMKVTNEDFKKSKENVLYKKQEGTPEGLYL
UniProt P20962: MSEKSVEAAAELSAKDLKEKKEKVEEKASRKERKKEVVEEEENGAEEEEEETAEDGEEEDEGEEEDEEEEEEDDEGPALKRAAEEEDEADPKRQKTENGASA
UniProt Q9BXR0: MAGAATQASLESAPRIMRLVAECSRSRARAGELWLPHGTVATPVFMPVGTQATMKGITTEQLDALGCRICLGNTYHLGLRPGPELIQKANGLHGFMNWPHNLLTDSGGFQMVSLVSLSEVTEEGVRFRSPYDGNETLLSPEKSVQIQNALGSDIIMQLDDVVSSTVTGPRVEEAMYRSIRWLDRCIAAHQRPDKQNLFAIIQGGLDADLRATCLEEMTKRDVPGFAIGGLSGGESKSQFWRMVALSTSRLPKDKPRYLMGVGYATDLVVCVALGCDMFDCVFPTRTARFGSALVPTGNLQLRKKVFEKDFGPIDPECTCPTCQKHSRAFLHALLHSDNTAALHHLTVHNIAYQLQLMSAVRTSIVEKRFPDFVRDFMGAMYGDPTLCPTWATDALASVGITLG
UniProt P25787: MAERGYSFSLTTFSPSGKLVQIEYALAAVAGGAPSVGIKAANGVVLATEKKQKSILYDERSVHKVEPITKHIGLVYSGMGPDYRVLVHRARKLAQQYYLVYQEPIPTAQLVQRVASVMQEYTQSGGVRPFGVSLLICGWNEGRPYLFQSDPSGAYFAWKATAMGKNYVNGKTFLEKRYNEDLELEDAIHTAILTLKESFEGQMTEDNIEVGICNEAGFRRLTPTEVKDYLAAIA
UniProt Q9Y6I8: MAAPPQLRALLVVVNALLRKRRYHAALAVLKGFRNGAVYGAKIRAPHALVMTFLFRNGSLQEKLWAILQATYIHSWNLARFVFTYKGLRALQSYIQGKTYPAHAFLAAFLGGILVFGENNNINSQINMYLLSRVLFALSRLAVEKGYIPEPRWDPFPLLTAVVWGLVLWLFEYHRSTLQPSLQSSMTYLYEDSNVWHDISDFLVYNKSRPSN
UniProt O95997: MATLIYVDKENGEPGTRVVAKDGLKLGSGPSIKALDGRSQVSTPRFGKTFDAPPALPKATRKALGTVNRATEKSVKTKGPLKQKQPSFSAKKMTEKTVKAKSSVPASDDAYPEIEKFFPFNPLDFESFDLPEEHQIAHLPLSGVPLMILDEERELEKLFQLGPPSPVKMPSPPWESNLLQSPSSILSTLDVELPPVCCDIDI
UniProt P08575: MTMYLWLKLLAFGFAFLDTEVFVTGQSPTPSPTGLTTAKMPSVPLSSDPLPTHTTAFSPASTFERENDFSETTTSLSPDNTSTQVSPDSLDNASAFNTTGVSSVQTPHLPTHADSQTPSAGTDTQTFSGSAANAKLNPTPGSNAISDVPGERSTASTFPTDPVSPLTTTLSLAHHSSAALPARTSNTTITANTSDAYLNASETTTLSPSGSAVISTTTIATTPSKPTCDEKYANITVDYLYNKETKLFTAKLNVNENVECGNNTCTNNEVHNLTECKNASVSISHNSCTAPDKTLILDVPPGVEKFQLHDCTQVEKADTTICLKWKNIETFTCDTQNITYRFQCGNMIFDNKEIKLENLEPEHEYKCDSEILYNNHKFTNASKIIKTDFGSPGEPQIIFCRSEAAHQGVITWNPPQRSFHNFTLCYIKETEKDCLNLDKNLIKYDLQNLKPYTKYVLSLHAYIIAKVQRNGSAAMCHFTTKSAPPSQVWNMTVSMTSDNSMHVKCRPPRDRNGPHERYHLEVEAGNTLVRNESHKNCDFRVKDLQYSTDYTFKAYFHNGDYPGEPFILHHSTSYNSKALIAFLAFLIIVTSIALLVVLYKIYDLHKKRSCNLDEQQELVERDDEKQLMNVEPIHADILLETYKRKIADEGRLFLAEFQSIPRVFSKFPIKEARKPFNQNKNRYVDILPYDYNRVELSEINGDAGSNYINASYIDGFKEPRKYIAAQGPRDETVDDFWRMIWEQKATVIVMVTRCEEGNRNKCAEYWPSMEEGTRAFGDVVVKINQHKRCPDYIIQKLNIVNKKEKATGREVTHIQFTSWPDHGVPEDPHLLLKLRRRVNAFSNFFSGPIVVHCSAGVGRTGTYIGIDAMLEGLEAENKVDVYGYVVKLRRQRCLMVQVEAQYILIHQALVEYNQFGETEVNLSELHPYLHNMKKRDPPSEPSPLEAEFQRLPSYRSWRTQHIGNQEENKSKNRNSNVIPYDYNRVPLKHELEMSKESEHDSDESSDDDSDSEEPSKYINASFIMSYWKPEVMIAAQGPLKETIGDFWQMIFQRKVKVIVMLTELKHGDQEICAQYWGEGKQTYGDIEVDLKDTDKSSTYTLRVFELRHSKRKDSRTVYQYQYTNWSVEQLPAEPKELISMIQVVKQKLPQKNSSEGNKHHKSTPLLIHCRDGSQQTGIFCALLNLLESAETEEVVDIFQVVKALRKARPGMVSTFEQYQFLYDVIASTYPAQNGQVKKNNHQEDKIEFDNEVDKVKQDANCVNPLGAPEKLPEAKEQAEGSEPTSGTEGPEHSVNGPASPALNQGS
UniProt Q99436: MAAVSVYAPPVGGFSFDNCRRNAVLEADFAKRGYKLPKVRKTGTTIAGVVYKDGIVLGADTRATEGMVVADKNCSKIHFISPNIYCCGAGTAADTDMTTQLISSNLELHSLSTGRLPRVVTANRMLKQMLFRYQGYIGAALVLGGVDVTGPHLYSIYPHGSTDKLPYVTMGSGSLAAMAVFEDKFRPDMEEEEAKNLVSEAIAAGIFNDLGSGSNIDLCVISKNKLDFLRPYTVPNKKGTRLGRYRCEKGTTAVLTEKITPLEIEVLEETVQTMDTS
UniProt Q15008: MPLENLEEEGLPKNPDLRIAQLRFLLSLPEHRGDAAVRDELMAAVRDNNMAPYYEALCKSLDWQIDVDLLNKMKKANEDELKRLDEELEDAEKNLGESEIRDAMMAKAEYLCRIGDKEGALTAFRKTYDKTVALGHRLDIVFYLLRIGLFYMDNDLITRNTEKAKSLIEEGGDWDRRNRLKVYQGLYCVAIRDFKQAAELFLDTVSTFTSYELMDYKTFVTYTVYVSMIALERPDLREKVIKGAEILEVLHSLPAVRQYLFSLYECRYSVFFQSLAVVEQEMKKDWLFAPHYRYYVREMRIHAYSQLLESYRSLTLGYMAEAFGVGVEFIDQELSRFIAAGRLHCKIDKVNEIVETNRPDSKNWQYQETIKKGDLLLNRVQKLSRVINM
UniProt Q8WXF1: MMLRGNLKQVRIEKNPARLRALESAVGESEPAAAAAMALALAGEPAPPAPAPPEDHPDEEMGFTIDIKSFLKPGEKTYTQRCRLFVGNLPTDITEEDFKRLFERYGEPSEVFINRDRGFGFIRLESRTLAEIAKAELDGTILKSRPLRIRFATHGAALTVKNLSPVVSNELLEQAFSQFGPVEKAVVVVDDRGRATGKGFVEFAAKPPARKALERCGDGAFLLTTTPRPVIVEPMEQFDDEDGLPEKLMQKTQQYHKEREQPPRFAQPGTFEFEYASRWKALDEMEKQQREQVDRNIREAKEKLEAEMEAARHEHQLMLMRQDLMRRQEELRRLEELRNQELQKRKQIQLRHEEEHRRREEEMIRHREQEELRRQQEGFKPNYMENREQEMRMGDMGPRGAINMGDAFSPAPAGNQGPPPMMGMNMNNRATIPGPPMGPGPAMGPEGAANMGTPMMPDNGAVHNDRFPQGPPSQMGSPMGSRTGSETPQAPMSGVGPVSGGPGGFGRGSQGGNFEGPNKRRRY
UniProt Q6PGN9: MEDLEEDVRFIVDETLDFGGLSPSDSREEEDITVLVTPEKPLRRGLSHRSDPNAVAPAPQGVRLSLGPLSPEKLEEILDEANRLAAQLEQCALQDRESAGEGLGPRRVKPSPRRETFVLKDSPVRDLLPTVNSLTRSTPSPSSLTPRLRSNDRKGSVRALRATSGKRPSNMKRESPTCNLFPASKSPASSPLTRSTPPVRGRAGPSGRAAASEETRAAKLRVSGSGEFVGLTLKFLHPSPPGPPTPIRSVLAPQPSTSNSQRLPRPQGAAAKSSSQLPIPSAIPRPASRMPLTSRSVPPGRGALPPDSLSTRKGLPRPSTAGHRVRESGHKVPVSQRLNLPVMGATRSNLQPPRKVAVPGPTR
UniProt P28074: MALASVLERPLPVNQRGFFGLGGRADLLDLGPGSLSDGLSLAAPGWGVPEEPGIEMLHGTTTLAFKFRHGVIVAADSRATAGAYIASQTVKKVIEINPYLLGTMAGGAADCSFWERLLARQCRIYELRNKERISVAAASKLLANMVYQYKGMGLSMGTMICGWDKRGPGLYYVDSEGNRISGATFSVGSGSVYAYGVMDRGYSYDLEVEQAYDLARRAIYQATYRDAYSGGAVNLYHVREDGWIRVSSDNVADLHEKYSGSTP

Columns and labels:
Assay in all cases: log2 fold change, soluble protein after heating vs DMSO (PISA); higher = thermal stabilisation; K562 cells, 10 uM, 30 min; active = over 0.2 and 3.5 SD of the protein, either way, in both replicates (recomputed)
[1] = compound: C1=CC=C(C=C1)[C@H](COC2=CC3=C(C=C2)NC(=O)N3)NC(=O)C4=CC=CN(C4=O)CC5=CC(=C(C=C5)F)F
Summary of the method: (§1)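 For each measurement, 10 μM compound was applied for 30 min to K562 cells at 2×10^6 cells/mL. Aliquots were heated for 3 min across 48°C-58°C, pooled, and extracted in PBS with 0.5% NP-40 at 4°C; the supernatant after 21,000xg for 90 min was soluble protein. This was quantified by TMTpro 16plex LC-MS/MS with channel sums equalised, and thermal stability was reported relative to control samples from duplicates, on a log2 fold-change scale.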

[2] = compound: CC1=C(SC2=C1C(=N[C@H](C3=NN=C(N32)C)CC(=O)N)C4=CC=C(C=C4)Cl)C
Summary of the method: as §1

[3] = compound: CC1=C2C(=CC=C1)N=C(N(C2=O)C3=CC=CC=C3C)CN4C=NC5=C(N=CN=C54)N
Summary of the method: as §1

[4] = compound: Cc1sc2c(c1C)C(c1ccc(Cl)cc1)=N[C@@H](CC(=O)OC(C)(C)C)c1nnc(C)n1-2
Summary of the method: as §1

[5] = compound: c1ccc([C@@H]2C[C@H]2NC2CCNCC2)cc1
Summary of the method: as §1

| Target | log2 fold change [1] | log2 fold change [2] | log2 fold change [3] | log2 fold change [4] | log2 fold change [5] |
| --- | --- | --- | --- | --- | --- |
| PRXL2B isoform 3 (UniProt Q8TBF2) | inactive: 0.024 | inactive: -0.085 | inactive: 0.001 | inactive: 0.025 | inactive: 0 |
| PTCD3 (UniProt Q96EY7) | inactive: 0.03 | inactive: -0.019 | inactive: 0.009 | inactive: 0.027 | inactive: -0.002 |
| PSMG1 (UniProt O95456) | inactive: 0.005 | inactive: 0 | inactive: -0.029 | inactive: 0.013 | inactive: 0.038 |
| PUF60 (UniProt Q9UHX1) | inactive: 0.031 | inactive: 0.033 | inactive: 0.081 | inactive: -0.036 | inactive: 0.007 |
| PUDP isoform 4 (UniProt Q08623) | inactive: 0.007 | inactive: 0.097 | inactive: 0 | inactive: -0.071 | inactive: -0.014 |
| PXN (UniProt P49023) | inactive: 0.044 | inactive: -0.011 | inactive: -0.035 | inactive: -0.004 | inactive: 0.048 |
| QRICH1 (UniProt Q2TAL8) | inactive: -0.029 | inactive: -0.148 | inactive: 0 | inactive: -0.02 | inactive: -0.016 |
| QDPR (UniProt P09417) | inactive: 0.015 | inactive: 0.002 | inactive: -0.012 | inactive: 0.032 | inactive: 0.095 |
| PSME4 (UniProt Q14997) | inactive: -0.041 | inactive: 0.017 | inactive: 0.017 | inactive: -0.025 | inactive: -0.048 |
| PYCR2 (UniProt Q96C36) | inactive: 0.043 | inactive: 0.044 | inactive: -0.027 | inactive: 0.027 | inactive: 0.003 |
| PSMD12 (UniProt O00232) | inactive: 0.021 | inactive: -0.063 | inactive: -0.066 | inactive: -0.045 | inactive: -0.009 |
| PSMD1 (UniProt Q99460) | inactive: 0.017 | inactive: -0.087 | inactive: -0.058 | inactive: -0.017 | inactive: 0 |
| PWP2 (UniProt Q15269) | inactive: 0.019 | inactive: -0.053 | inactive: -0.05 | inactive: 0.087 | inactive: 0.02 |
| PTBP1 (UniProt P26599) | inactive: 0.044 | inactive: 0.026 | inactive: -0.018 | inactive: -0.051 | inactive: -0.017 |
| PUM2 (UniProt Q8TB72) | inactive: 0.041 | inactive: 0.002 | inactive: 0.046 | inactive: 0.072 | inactive: -0.045 |
| PSMD13 (UniProt Q9UNM6) | inactive: -0.008 | inactive: -0.096 | inactive: -0.046 | inactive: -0.028 | inactive: 0 |
| PSPH (UniProt P78330) | inactive: 0.018 | inactive: 0.094 | inactive: 0.079 | inactive: -0.011 | inactive: -0.045 |
| PSME2 (UniProt Q9UL46) | inactive: -0.016 | inactive: -0.015 | inactive: -0.049 | inactive: 0.009 | inactive: 0.016 |
| PTPN12 (UniProt Q05209) | inactive: 0.035 | inactive: 0.034 | inactive: 0.091 | inactive: 0.024 | inactive: 0.015 |
| PSMA7 isoform 2 (UniProt O14818) | inactive: 0.033 | inactive: -0.087 | inactive: 0.2 | inactive: 0.186 | inactive: 0.06 |
| PSMA3 (UniProt P25788) | inactive: 0.051 | inactive: -0.062 | inactive: -0.022 | inactive: -0.036 | inactive: -0.029 |
| PSMC1 (UniProt P62191) | inactive: 0.047 | inactive: -0.09 | inactive: -0.002 | inactive: 0 | inactive: 0 |
| PYGB (UniProt P11216) | inactive: 0.024 | inactive: 0.037 | inactive: 0.003 | inactive: 0.015 | inactive: -0.003 |
| PTMS (UniProt P20962) | inactive: -0.011 | inactive: 0.024 | inactive: -0.027 | inactive: -0.023 | inactive: 0.035 |
| PSMB1 (UniProt P20618) | inactive: 0.054 | inactive: -0.018 | inactive: -0.024 | inactive: 0.024 | inactive: 0.002 |
| QTRT1 (UniProt Q9BXR0) | inactive: 0.032 | inactive: -0.005 | inactive: 0.055 | inactive: -0.023 | inactive: -0.014 |
| PSIP1 (UniProt O75475) | inactive: 0.058 | inactive: -0.082 | inactive: -0.087 | inactive: 0.1 | inactive: 0.016 |

| Target | log2 fold change [1] | log2 fold change [2] | log2 fold change [3] | log2 fold change [4] | log2 fold change [5] |
| --- | --- | --- | --- | --- | --- |
| PSMC4 (UniProt P43686) | inactive: 0.022 | inactive: -0.117 | inactive: -0.022 | inactive: 0.006 | inactive: 0.001 |
| PSMD11 (UniProt O00231) | inactive: 0.043 | inactive: -0.049 | inactive: -0.053 | inactive: -0.017 | inactive: 0 |
| PUS10 (UniProt Q3MIT2) | inactive: 0 | inactive: 0.031 | inactive: 0.059 | inactive: 0.011 | inactive: -0.121 |
| PSMA2 (UniProt P25787) | inactive: 0.045 | inactive: -0.005 | inactive: -0.044 | inactive: -0.006 | inactive: 0.02 |
| PTGR2 (UniProt Q8N8N7) | inactive: 0.004 | inactive: 0.055 | active: 0.581 | inactive: -0.043 | inactive: -0.091 |
| PSME1 (UniProt Q06323) | inactive: -0.018 | inactive: 0.025 | inactive: 0.036 | inactive: -0.029 | inactive: -0.025 |
| PTPN1 (UniProt P18031) | inactive: -0.057 | inactive: -0.036 | inactive: 0.038 | inactive: -0.004 | inactive: -0.025 |
| PXMP4 (UniProt Q9Y6I8) | inactive: 0.013 | inactive: -0.091 | inactive: 0.09 | inactive: -0.087 | inactive: 0.074 |
| PTTG1 (UniProt O95997) | inactive: -0.005 | inactive: 0.003 | inactive: 0.014 | inactive: 0.004 | inactive: 0.011 |
| PURB (UniProt Q96QR8) | inactive: 0.018 | inactive: -0.261 | inactive: -0.112 | inactive: 0.203 | inactive: 0.115 |
| PTPRC (UniProt P08575) | inactive: -0.013 | inactive: 0.046 | inactive: 0.027 | inactive: 0.028 | inactive: 0.033 |
| PTS (UniProt Q03393) | inactive: 0.025 | inactive: 0.052 | inactive: 0.103 | inactive: 0.098 | inactive: -0.03 |
| PTPN11 isoform 1 (UniProt Q06124) | inactive: -0.029 | inactive: 0.035 | inactive: 0 | inactive: -0.019 | inactive: -0.021 |
| PTGFRN (UniProt Q9P2B2) | inactive: -0.014 | inactive: 0.036 | inactive: 0.043 | inactive: 0.04 | inactive: -0.006 |
| PRXL2A (UniProt Q9BRX8) | inactive: 0.035 | inactive: 0.04 | inactive: 0.102 | inactive: 0.076 | inactive: -0.044 |
| PYROXD1 (UniProt Q8WU10) | inactive: 0.104 | inactive: 0.098 | inactive: 0.042 | inactive: 0.016 | inactive: -0.248 |
| PSMB7 (UniProt Q99436) | inactive: 0.086 | inactive: -0.03 | inactive: -0.023 | inactive: 0.017 | inactive: 0.042 |
| PSMD6 (UniProt Q15008) | inactive: 0.019 | inactive: -0.088 | inactive: -0.116 | inactive: -0.006 | inactive: 0.001 |
| PTTG1IP (UniProt P53801) | inactive: 0.149 | inactive: -0.055 | inactive: -0.134 | inactive: 0.04 | inactive: 0.084 |
| PSMC3 (UniProt P17980) | inactive: 0.014 | inactive: -0.083 | inactive: -0.058 | inactive: 0 | inactive: 0 |
| PSPC1 (UniProt Q8WXF1) | inactive: -0.023 | inactive: -0.029 | inactive: 0.038 | inactive: -0.032 | inactive: 0.015 |
| PSRC1 (UniProt Q6PGN9) | inactive: 0 | inactive: -0.057 | inactive: 0.031 | inactive: 0.078 | inactive: -0.005 |
| PTPRA (UniProt P18433) | inactive: -0.088 | inactive: 0.022 | inactive: 0.079 | inactive: 0.002 | inactive: 0.021 |
| PSMB5 (UniProt P28074) | inactive: 0.065 | inactive: -0.016 | inactive: -0.104 | inactive: 0.005 | inactive: 0.05 |
| PTBP3 isoform 4 (UniProt O95758) | inactive: -0.011 | inactive: 0.007 | inactive: 0.031 | inactive: 0.017 | inactive: 0.032 |
| PSMD14 (UniProt O00487) | inactive: -0.022 | inactive: -0.062 | inactive: -0.044 | inactive: -0.021 | inactive: 0.012 |
| PSMG2 (UniProt Q969U7) | inactive: 0.014 | inactive: 0.004 | inactive: 0.027 | inactive: -0.022 | inactive: 0.013 |

Part of the list above, tab-delimited:
Target	log2 fold change [1]	log2 fold change [2]	log2 fold change [3]	log2 fold change [4]	log2 fold change [5]
PUF60 (UniProt Q9UHX1)	inactive: 0.031	inactive: 0.033	inactive: 0.081	inactive: -0.036	inactive: 0.007
PTBP1 (UniProt P26599)	inactive: 0.044	inactive: 0.026	inactive: -0.018	inactive: -0.051	inactive: -0.017
PUM2 (UniProt Q8TB72)	inactive: 0.041	inactive: 0.002	inactive: 0.046	inactive: 0.072	inactive: -0.045
PSRC1 (UniProt Q6PGN9)	inactive: 0	inactive: -0.057	inactive: 0.031	inactive: 0.078	inactive: -0.005
